Measured values published in the supplement of paper PMC11732987, “Enantioselective OTUD7B fragment discovery through chemoproteomics screening and high-throughput optimisation” (Communications Chemistry, 2025).
The list shows a part of the results. The data scatter; read single values as rough.

Protein sequences, listed by entry. Tags and fused reporters are not part of them. Lines headed by an entry give the natural chain unless they say otherwise; changes in a name come on top. Residues count along the entry.
UniProt Q96B77: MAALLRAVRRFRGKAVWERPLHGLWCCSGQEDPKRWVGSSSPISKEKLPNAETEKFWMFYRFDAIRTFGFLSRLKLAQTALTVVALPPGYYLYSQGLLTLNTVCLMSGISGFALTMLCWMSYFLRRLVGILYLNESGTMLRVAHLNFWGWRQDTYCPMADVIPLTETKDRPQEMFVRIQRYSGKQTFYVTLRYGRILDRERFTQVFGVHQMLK
UniProt Q6Q0C0: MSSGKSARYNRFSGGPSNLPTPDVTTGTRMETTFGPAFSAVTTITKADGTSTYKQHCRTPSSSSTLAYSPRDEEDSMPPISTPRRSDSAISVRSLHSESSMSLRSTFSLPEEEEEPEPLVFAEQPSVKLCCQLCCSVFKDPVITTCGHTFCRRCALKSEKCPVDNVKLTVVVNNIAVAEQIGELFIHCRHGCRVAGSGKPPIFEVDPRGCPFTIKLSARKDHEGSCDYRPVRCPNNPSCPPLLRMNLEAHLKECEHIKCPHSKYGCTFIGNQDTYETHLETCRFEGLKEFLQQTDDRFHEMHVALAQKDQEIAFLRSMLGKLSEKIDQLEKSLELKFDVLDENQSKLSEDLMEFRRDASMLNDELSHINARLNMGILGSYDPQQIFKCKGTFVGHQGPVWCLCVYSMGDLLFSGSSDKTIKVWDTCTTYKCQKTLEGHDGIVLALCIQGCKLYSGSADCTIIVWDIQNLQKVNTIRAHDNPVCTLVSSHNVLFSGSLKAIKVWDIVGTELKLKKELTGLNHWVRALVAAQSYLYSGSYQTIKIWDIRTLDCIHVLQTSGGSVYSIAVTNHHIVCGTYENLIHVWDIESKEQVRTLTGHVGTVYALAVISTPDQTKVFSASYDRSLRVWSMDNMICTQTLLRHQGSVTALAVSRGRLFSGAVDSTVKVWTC
UniProt Q9H2D6: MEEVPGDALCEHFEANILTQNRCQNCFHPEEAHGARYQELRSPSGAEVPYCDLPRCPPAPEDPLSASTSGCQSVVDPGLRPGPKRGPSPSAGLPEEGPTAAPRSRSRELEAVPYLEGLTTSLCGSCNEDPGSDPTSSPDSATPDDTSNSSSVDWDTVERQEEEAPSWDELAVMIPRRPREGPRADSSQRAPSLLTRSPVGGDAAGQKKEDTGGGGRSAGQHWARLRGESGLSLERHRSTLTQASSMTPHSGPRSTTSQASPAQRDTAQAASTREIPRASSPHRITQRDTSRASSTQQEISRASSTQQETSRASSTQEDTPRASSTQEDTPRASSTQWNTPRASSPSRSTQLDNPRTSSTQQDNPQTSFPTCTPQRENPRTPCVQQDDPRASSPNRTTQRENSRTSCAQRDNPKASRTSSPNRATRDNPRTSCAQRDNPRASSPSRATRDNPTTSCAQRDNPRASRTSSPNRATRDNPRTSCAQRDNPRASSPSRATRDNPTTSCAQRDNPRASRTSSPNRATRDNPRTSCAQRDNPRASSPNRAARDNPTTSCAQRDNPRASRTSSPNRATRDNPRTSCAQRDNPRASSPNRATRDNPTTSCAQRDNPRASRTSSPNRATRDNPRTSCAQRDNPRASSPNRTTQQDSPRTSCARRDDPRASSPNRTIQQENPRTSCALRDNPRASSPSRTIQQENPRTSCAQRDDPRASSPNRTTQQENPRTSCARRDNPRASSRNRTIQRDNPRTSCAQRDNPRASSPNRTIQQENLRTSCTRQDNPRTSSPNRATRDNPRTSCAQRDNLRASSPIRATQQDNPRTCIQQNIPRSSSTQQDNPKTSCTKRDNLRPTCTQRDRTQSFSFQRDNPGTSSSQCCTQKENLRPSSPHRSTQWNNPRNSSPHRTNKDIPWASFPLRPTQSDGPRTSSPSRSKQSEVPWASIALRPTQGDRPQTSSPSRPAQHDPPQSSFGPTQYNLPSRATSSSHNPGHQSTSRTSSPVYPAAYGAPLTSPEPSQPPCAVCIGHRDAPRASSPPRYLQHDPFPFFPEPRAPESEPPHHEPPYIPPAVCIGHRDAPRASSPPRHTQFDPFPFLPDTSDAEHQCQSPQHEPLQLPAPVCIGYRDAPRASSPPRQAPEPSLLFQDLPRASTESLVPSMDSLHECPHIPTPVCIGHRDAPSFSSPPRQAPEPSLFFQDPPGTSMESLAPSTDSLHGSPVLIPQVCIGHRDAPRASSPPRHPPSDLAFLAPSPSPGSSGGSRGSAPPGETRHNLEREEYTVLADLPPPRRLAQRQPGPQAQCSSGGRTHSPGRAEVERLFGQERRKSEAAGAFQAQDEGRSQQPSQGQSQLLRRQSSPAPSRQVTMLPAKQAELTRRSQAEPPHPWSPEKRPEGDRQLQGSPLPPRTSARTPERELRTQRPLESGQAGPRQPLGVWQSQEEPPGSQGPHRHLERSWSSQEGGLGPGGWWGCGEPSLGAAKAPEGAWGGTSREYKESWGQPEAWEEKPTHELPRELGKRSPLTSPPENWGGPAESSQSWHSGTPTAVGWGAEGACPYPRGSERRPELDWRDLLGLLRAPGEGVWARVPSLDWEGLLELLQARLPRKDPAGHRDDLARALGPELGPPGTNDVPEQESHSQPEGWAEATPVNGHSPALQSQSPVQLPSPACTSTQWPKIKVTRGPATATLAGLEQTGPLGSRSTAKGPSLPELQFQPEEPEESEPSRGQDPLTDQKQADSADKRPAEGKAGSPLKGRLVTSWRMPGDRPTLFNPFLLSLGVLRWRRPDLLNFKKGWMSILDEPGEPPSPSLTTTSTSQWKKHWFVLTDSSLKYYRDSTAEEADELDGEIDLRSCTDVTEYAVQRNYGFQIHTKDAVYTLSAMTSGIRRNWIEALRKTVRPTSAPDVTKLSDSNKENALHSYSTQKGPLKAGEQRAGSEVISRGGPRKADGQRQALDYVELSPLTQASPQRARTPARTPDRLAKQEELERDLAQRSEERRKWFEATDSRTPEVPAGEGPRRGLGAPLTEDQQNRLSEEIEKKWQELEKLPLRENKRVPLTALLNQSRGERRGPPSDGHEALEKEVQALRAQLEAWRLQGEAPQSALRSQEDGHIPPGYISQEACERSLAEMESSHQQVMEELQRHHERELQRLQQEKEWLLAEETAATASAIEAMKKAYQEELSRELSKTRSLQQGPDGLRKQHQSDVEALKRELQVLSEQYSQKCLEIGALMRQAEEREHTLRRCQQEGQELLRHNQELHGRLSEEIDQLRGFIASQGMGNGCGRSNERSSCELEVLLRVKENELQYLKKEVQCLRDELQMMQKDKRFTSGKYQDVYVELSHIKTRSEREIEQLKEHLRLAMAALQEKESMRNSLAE
UniProt O94826, whole entry, looked up: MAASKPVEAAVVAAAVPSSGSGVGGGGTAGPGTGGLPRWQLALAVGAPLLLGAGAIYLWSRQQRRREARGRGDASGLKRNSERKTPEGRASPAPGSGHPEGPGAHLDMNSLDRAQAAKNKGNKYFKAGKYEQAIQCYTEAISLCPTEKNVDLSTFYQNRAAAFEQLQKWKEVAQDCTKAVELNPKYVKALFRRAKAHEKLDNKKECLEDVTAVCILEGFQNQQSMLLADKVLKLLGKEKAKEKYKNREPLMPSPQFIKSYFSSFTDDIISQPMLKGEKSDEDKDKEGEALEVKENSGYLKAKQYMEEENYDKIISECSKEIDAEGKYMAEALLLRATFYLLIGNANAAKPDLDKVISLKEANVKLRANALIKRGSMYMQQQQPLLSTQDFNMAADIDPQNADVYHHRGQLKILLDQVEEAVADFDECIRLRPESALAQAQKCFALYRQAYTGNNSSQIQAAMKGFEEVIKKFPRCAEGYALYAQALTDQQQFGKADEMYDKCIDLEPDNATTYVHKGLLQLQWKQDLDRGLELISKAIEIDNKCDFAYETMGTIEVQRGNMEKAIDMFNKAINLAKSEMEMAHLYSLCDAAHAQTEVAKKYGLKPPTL
UniProt P60174: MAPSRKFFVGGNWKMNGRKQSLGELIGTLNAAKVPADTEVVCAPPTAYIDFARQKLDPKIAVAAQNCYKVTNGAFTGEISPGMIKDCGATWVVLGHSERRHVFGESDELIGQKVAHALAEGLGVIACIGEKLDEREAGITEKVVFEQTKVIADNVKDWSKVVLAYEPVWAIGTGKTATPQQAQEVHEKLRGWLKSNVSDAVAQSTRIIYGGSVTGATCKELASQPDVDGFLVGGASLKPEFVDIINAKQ
UniProt Q9NVH6: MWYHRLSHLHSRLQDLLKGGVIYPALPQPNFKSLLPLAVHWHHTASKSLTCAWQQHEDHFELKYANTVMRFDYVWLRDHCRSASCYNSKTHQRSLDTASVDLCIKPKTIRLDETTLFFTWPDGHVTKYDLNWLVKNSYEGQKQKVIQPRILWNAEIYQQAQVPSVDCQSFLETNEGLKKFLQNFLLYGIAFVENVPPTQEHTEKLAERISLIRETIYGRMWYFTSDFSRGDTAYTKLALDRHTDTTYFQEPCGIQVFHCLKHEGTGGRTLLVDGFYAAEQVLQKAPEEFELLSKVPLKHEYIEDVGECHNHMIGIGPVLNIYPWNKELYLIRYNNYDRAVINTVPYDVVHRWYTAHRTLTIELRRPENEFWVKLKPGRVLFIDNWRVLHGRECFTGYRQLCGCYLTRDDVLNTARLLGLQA
UniProt Q14142, 231-252: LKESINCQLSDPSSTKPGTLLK
UniProt Q71RG4: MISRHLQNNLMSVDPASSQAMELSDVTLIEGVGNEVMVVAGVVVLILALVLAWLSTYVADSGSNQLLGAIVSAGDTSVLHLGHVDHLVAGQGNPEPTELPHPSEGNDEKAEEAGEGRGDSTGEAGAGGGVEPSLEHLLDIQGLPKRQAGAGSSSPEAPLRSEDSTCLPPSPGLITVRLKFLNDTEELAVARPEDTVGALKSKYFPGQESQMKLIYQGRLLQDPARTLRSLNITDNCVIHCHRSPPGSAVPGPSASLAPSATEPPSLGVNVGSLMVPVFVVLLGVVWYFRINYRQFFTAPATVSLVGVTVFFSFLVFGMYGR
UniProt Q96SK2: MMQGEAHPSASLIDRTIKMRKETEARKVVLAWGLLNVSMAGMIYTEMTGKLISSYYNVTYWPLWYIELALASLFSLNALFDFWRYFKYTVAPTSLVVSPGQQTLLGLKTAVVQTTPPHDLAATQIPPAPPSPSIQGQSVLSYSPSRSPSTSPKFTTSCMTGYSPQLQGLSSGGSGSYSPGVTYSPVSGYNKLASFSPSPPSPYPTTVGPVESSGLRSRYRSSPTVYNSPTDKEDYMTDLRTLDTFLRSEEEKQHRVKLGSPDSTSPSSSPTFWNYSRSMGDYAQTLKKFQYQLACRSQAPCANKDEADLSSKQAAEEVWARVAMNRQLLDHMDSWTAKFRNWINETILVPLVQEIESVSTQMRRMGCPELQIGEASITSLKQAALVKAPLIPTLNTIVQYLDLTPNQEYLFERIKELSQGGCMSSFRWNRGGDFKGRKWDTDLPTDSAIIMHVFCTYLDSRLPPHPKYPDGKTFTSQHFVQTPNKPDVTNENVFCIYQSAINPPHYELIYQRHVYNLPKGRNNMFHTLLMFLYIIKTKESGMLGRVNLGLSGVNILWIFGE
UniProt Q5JTV8: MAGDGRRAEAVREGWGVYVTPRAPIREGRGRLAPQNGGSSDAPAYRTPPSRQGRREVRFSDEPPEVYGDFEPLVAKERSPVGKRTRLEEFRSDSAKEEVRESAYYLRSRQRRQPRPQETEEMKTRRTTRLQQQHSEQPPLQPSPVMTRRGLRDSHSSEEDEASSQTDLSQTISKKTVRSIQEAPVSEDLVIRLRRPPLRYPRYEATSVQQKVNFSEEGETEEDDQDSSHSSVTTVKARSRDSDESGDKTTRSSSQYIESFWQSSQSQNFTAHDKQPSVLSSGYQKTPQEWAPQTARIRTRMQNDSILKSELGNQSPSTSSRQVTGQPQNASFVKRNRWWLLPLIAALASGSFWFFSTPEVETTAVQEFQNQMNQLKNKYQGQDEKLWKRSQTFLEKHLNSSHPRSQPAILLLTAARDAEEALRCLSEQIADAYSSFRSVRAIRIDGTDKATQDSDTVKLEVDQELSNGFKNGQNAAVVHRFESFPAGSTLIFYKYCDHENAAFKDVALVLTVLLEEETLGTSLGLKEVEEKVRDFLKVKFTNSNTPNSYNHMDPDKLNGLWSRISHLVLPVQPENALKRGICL

Columns and labels:
[1] = compound: ClCC(=O)N[C@@H]1CCCc2ccccc12; assay: log2 mean competition ratio of IA-DTB cysteine labelling (DMSO/compound) (log2 ratio); higher = stronger cysteine engagement by compound; conditions: treatment time: 4 h, cell line lysate: HEK293T
Description: (§1)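 IA-DTB competitive cysteine chemoproteomics in HEK293T RIPA lysate. Lysates were treated with compound 29 or 30 at 50 or 200 µM for 4 h, then IA-DTB (500 µM, 1 h), trypsin-digested, NeutrAvidin-enriched and analysed by diaPASEF. Competition ratio = intensity DMSO / intensity compound (n=4 treated, n=64 DMSO); binding: mean log2 CR ≥ 1 and p ≤ 0.05 plus QC filters. Target is the cysteine site.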

[2] = compound: ClCC(=O)N[C@H]1CCCc2ccccc12; assay: as above; conditions: treatment time: 4 h, cell line lysate: HEK293T
Description: as §1

Target: TMEM186 C156 (UniProt Q96B77)
- log2 mean competition ratio ([1]; 50 µM): -0.183
- log2 mean competition ratio ([1]; 200 µM): -0.115
- log2 mean competition ratio ([2]; 50 µM): 0.178
- log2 mean competition ratio ([2]; 200 µM): 0.316

Target: TIGD2 C102
- log2 mean competition ratio ([1]; 50 µM): -0.0696
- log2 mean competition ratio ([1]; 200 µM): 0.181
- log2 mean competition ratio ([2]; 50 µM): -0.123
- log2 mean competition ratio ([2]; 200 µM): 0.136

Target: TRAF7 C426 (UniProt Q6Q0C0)
- log2 mean competition ratio ([1]; 50 µM): -0.0745
- log2 mean competition ratio ([1]; 200 µM): -0.134
- log2 mean competition ratio ([2]; 50 µM): 0.00716
- log2 mean competition ratio ([2]; 200 µM): -0.26

Target: TRIOBP C2280 (UniProt Q9H2D6)
- log2 mean competition ratio ([1]; 50 µM): 0.387
- log2 mean competition ratio ([1]; 200 µM): 0.0839
- log2 mean competition ratio ([2]; 50 µM): 0.0697
- log2 mean competition ratio ([2]; 200 µM): 0.228

Target: TOP1MT C222
- log2 mean competition ratio ([1]; 50 µM): -0.186
- log2 mean competition ratio ([1]; 200 µM): -0.096
- log2 mean competition ratio ([2]; 50 µM): -0.327
- log2 mean competition ratio ([2]; 200 µM): -0.11

Target: TOMM70 C176 (UniProt O94826)
- log2 mean competition ratio ([1]; 50 µM): -0.0558
- log2 mean competition ratio ([1]; 200 µM): 0.16
- log2 mean competition ratio ([2]; 50 µM): 0.0148
- log2 mean competition ratio ([2]; 200 µM): 0.0329

Target: TPI1 C218 (UniProt P60174)
- log2 mean competition ratio ([1]; 50 µM): -0.136
- log2 mean competition ratio ([1]; 200 µM): 0.244
- log2 mean competition ratio ([2]; 50 µM): -0.245
- log2 mean competition ratio ([2]; 200 µM): 0.218

Target: TNRC6B C557 (UniProt Q9UPQ9)
- log2 mean competition ratio ([1]; 50 µM): 0.37
- log2 mean competition ratio ([1]; 200 µM): 0.106
- log2 mean competition ratio ([2]; 50 µM): 0.138
- log2 mean competition ratio ([2]; 200 µM): 0.332

Target: TMLHE C393 (UniProt Q9NVH6)
- log2 mean competition ratio ([1]; 50 µM): 0.135
- log2 mean competition ratio ([1]; 200 µM): 0.0387
- log2 mean competition ratio ([2]; 50 µM): 0.241
- log2 mean competition ratio ([2]; 200 µM): -0.0615

Target: TRIM14 C237 (UniProt Q14142)
- log2 mean competition ratio ([1]; 50 µM): 0.257
- log2 mean competition ratio ([1]; 200 µM): 0.806
- log2 mean competition ratio ([2]; 50 µM): -0.0165
- log2 mean competition ratio ([2]; 200 µM): 0.173

Target: TRAPPC8 C943 (UniProt Q9Y2L5)
- log2 mean competition ratio ([1]; 50 µM): -0.0845
- log2 mean competition ratio ([1]; 200 µM): 0.0137
- log2 mean competition ratio ([2]; 50 µM): -0.432
- log2 mean competition ratio ([2]; 200 µM): -0.104

Target: TRIM33 C299
- log2 mean competition ratio ([1]; 50 µM): -0.156
- log2 mean competition ratio ([1]; 200 µM): -0.0582
- log2 mean competition ratio ([2]; 50 µM): 0.225
- log2 mean competition ratio ([2]; 200 µM): -0.0925

Target: TMUB2 C166 (UniProt Q71RG4)
- log2 mean competition ratio ([1]; 50 µM): -0.292
- log2 mean competition ratio ([1]; 200 µM): 0.0999
- log2 mean competition ratio ([2]; 50 µM): 0.481
- log2 mean competition ratio ([2]; 200 µM): -0.00782

Target: TMEM209 C367 (UniProt Q96SK2)
- log2 mean competition ratio ([1]; 50 µM): 1.04
- log2 mean competition ratio ([1]; 200 µM): 0.687
- log2 mean competition ratio ([2]; 50 µM): 0.283
- log2 mean competition ratio ([2]; 200 µM): -0.034

Target: TP53BP1 C513 (UniProt Q12888)
- log2 mean competition ratio ([1]; 50 µM): -0.225
- log2 mean competition ratio ([1]; 200 µM): 0.103
- log2 mean competition ratio ([2]; 50 µM): 0.257
- log2 mean competition ratio ([2]; 200 µM): 0.316

Target: TOR1AIP1 C496 (UniProt Q5JTV8)
- log2 mean competition ratio ([1]; 50 µM): 0.408
- log2 mean competition ratio ([1]; 200 µM): -0.146
- log2 mean competition ratio ([2]; 50 µM): 0.116
- log2 mean competition ratio ([2]; 200 µM): -0.181
